# Data: the supplement of paper PMC3334620
# Whole data set: some 33,000 sequences, median “E-score (-0.5 to 0.5)” near -0.0034, cut for the highest 2% near 0.25. The list shows a part of the results.
# Molecular target: T1, Yap3 (UniProt P38749)
# T1 sequence: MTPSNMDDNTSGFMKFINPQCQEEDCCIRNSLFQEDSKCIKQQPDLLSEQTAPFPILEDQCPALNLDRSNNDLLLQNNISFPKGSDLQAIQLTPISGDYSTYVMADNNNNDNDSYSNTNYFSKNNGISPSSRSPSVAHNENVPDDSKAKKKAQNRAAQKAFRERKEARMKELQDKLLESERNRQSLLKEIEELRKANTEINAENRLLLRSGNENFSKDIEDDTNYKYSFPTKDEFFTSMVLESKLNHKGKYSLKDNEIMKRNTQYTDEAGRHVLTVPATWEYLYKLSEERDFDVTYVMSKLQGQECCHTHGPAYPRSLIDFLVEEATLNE
# Assay: PBM E-score (8-mer binding enrichment) (E-score (-0.5 to 0.5)); higher = stronger / more preferred TF binding
# Settings: protein concentration: 100 nM; construct: GST-full length
# Summary of the method: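 Detection of bound protein used fluorescent anti-GST, with scans normalised by masliner. The proteins were GST-tagged yeast transcription factors applied at about 100-200 nM to universal all-10-mer Agilent arrays made double-stranded by primer extension. Each ungapped eight-base word, pooled with its reverse complement, was scored with an E-score from the Universal PBM Analysis Suite.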
row,Sequence,PBM E-score
1,CACCCATA,-0.132
2,GATGGACA,-0.0115
3,CAAAGACC,-0.0486
4,ACTCTCGG,-0.0113
5,TCCGAAAA,-0.172
6,CTATGATC,-0.0167
7,ACCCTGAG,-0.00061
8,GACGCACA,0.00333
9,ATAACTAG,0.146
10,ACCGGCTC,-0.147
11,ACACCTCA,-0.011
12,ACGTGACC,-0.173
13,GTGAGAGA,-0.048
14,GATGTGAA,0.161
15,AACGCGTT,-0.025
16,GTTCCCCA,-0.0966
17,TAGGAACA,0.121
18,GATATACC,0.151
19,AAACTTCC,-0.0651
20,CATAACGC,-0.014
21,CATAGCGC,0.134
22,GAACTTCC,0.012
23,TGGTATAA,0.268
24,AGATATCA,0.0902
25,CCACACGA,-0.102

row,Sequence,PBM E-score
1,CGTTTGAG,-0.0507
2,AAACGAAA,0.234
3,AAGCTCAG,-0.13
4,TAAGCTCA,-0.0888
5,CGCGGTGA,0.016
6,GAAGCAAC,0.0624
7,AAAATTCG,0.148
8,AATCGCGC,0.124
9,CCCCCGGA,-0.338
10,ACCCTTAT,0.122
11,CTGTGGGC,-0.0254
12,GGCACCGA,-0.0393
13,CCATACCC,-0.209
14,CGGAGACA,0.00741
15,CTGGGAGC,-0.297
16,AGGAGGGC,-0.381
17,CCATTCCA,-0.0802
18,GCGAAATA,-0.00036
19,AACGCGTC,0.019
20,CAACAGAG,-0.0404
21,AAAACATC,0.0461
22,AGATCACC,0.063
23,CGCGATTC,0.198
24,ACCGCATC,-0.0582
25,CGAATCAG,-0.019

row,Sequence,PBM E-score
1,CTCATCTA,0.0126
2,ACACTCGT,0.00445
3,AACATTAA,0.154
4,TACCGGGA,-0.0163
5,AGTACAGA,0.155
6,ACAACCAT,0.334
7,AGTCCGAG,0.0646
8,AGCTCACC,-0.122
9,GATCCAAA,-0.035
10,CCACTGAG,-0.253
11,TACTACTA,0.223
12,AGCACTGG,-0.0579
13,AACAAGCT,0.0372
14,GTTTGGGA,0.128
15,CCACCCGC,-0.184
16,ACACCACT,0.172
17,AATGTCCA,0.0203
18,CAAATTCA,0.0554
19,GATTTACC,0.187
20,ATGGCAAT,0.0617
21,CTAGCTAC,-0.139
22,GACCGGGA,-0.188
23,GTAATTGA,0.115
24,AGTGTGTA,0.135
25,CACCTTTA,-0.0718

row,Sequence,PBM E-score
1,GAGTTATC,0.197
2,ATACCTAG,0.169
3,AAGAGGAG,-0.115
4,ACTAATGG,0.19
5,GATAGTGC,0.0464
6,CAGAGCCG,-0.136
7,CGGCGCCA,-0.136
8,ACGCCCCG,-0.24
9,CCTGACAC,0.0201
10,GATTCAAA,0.0843
11,CATCCCAC,-0.25
12,AATAAAAG,0.0973
13,CCAAGTCA,-0.0299
14,TCAAGACA,-0.0949
15,AGTTTGGC,0.00695
16,CCTGCTCC,-0.139
17,AATCATGA,0.275
18,AAAAACTT,0.0325
19,CCGAGGGA,-0.213
20,GGTGACAC,-0.132
21,AGGCGCCA,-0.0435
22,CGGGCCCC,-0.246
23,CAGATTCG,-0.0389
24,CCAGACCC,-0.276
25,ACCAGATG,-0.165

row,Sequence,PBM E-score
1,TCGCACGA,-0.103
2,GGGACTCA,-0.305
3,GCTTCATA,-0.0535
4,AAGCAAAA,0.095
5,CACACGGG,-0.0901
6,CTAATTTC,0.197
7,GCGATAGC,-0.027
8,TAGAGAAA,0.0112
9,CAAATACA,0.247
10,CTGTGGGA,0.0283
11,CAGCGGGC,-0.124
12,CAAACAGG,-0.0362
13,CTCGAAAC,0.0621
14,CAGCTCCA,-0.051
15,AATACAAG,0.24
16,CCGCCCCC,-0.346
17,CAGTTTCG,0.0184
18,CTTCTGTA,0.0878
19,GGGTTAAA,0.0408
20,AATGGAGC,-0.0449
21,GGTCCGAC,-0.152
22,AACTTCCC,-0.0432
23,GCGACCGA,0.136
24,AAGAAGTC,-0.0713
25,AGAAGAGA,-0.0441

row,Sequence,PBM E-score
1,ATTTTTCA,0.0522
2,ATGCTTGG,0.0354
3,CTACGAGA,0.0168
4,ATCGATCC,-0.0338
5,CATGCGCG,0.101
6,AGGAATTA,0.203
7,CGATCAAA,-0.021
8,TAACCGCA,0.236
9,CCTCCCCG,-0.0854
10,CATAGCGG,-0.25
11,ATTTCCTC,0.00861
12,CGCTCTGC,-0.126
13,AACTCGTA,0.214
14,CGAGCAGA,-0.165
15,CGAGAAAG,0.103
16,AAGTTTGC,0.169
17,ATCATGGA,-0.0169
18,AACGCACA,0.139
19,GCCGCGGC,0.225
20,ATTTTCAG,0.286
21,TCGACAAA,0.181
22,GCTAGCCC,-0.186
23,ATCCTCTA,-0.134
24,GGTAAGAA,-0.0371
25,AACCGAGA,0.106

row,Sequence,PBM E-score
1,AGTAATGC,0.13
2,CTCCCCAC,-0.17
3,CTAGCGGA,-0.135
4,GTAAACCA,0.133
5,CACGCGGG,-0.121
6,CGAGGCTC,-0.184
7,ATTCGTAG,-0.0186
8,ACCTTACG,0.178
9,GGATATTA,0.0994
10,CAACTCAG,-0.162
11,AGATGCAT,0.03
12,CATGATGC,0.0141
13,AACGTCGG,-0.0805
14,ATAGCTTA,-0.0587
15,ATGGCTAG,-0.03
16,CCGTGCGC,-0.0466
17,CGTGTGCC,-0.15
18,GCAGCCCC,-0.281
19,ATGGCGCG,-0.0449
20,AGGAGACC,-0.0804
21,AGTCAGCG,-0.0344
22,GAACCACC,-0.0554
23,GTGCAAAA,0.0965
24,ATCCAGAG,0.0894
25,GTCGGAGA,-0.245

# Reprinted at random: four records from the list.
row,Sequence,PBM E-score
2,ACACTCGT,0.00445
17,CAGTTTCG,0.0184
16,ACACCACT,0.172
19,AAACTTCC,-0.0651

# Additional records follow.

row,Sequence,PBM E-score
1,ACTGCTGC,-0.0152
2,TCGCAAGA,-0.0427
3,TCCCCTAA,0.0799
4,CTTGACGC,-0.161
5,CTTTTGCA,0.227
6,ACCAATAA,0.0717
7,CTGCGTAA,0.0826
8,CACCCAAA,0.0709
9,AAATTCAG,0.123
10,CCATAGGA,-0.183
11,TCCAGGAA,-0.0178
12,AACGCTGG,-0.0798
13,ACGTATTC,0.123
14,AGCCGAAT,0.00799
15,AGGTACGC,-0.0272
16,GCTTCGCC,-0.388
17,CCTTATCG,0.0724
18,AAGTCAGG,0.0833
19,TACGTACA,0.197
20,ACTTGCGG,-0.12
21,ACCAGCTG,-0.0597
22,CAGGTATA,0.00623
23,AAGATAGA,0.122
24,CATATCAA,0.275
25,CGCTAGGC,-0.153

# Single values from above:
# Value of AGCCGAAT under PBM E-score: 0.00799
# Value of ACTGCTGC under PBM E-score: -0.0152
# Value of ACGTATTC under PBM E-score: 0.123
# Value of TACGTACA under PBM E-score: 0.197
# Value of ACCAATAA under PBM E-score: 0.0717
# Value of ACTTGCGG under PBM E-score: -0.12

# More records

row,Sequence,PBM E-score
1,GGCCCCAA,-0.195
2,ACGCATAC,0.035
3,ACCGTCGC,0.0385
4,ACCTGTGG,-0.219
5,CTATTGCA,0.0522
6,CGCAGTCA,-0.0843
7,ACATGACT,-0.0255
8,CAGACTAG,-0.204
9,CCATCGAA,0.0374
10,CACCAGTG,-0.153
11,ACGGCTGC,-0.269
12,CTCAGGAG,-0.141
13,AGAGTGGG,-0.0739
14,ACTTCCGC,0.0174
15,ATAATCGA,0.0902
16,CAGTTGGG,-0.0888
17,CAGTTCCC,-0.134
18,AGTTTCAC,-0.0173
19,CGCTGGAC,-0.214
